Values from PubChem BioAssay AID652243 (Drosophila RNAi Screening Center, 2013)
Assay: 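Fly regulators of androgen-dependent reporter output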 (primary screen). Cell system: Drosophila S2R+ cells. Reagent: long dsRNA against Drosophila genes. Time to read-out: 72 h (48 h, then 24 h hormone). Conditions: synthetic androgen R1881 at 10 nM for 24 h. Measurement: 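Firefly light from an androgen-responsive reporter and Renilla control light per well, raw and unnormalised, for each of two replicates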. Reading the numbers: firefly reporter light: higher = more light from androgen-responsive reporter; Renilla control light: higher = more constitutive control signal (cell number, transfection). Active means: 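Hit when the log firefly-to-Renilla ratio dropped or increased by a fixed fold versus the mean of GFP or LacZ controls across duplicate plates; lowering cut given as 1.5 and as 3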. Meaning of the calls: active = hit: reporter lowered or raised; inactive = no hit.
The deposit covers about 24,000 reagents; this is a random part of those with a known target gene and a result. Of all reagents, 246 (1%) are marked active. 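Plates not normalised; calls are printed but the firefly/Renilla ratio behind them is not deposited; fold cut for lowering reported inconsistently.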 Raw values are not corrected between plates. Unmarked entries are inactive. Reagents against one gene are numbered here. A plus sign joins genes that one reagent is predicted to hit. Reagent sequences are not shown. The record does not give: the amount of reagent.

target	dsRNA no.	firefly reporter light, replicate 1	firefly reporter light, replicate 2	Renilla control light, replicate 1	Renilla control light, replicate 2
Fkbp39 (GeneID 41860)	1	28239	29862	2.14e5	2.58e5
Fkbp39 (GeneID 41860)	2	3.92e5	4.00e5	5.40e5	4.79e5
rl (GeneID 3354888)	1	2.14e5	2.60e5	1.98e6	2.25e6
rl (GeneID 3354888)	2	2.23e5	1.99e5	5.79e5	6.12e5
rl (GeneID 3354888)	3	4.74e5	4.97e5	2.40e6	3.82e6
Zw (GeneID 32974)	1	81956	88514	3.91e5	4.60e5
Zw (GeneID 32974)	2	4.81e5	2.71e5	5.46e5	5.37e5
Dysb (GeneID 40052)	1	2.76e5	2.49e5	3.01e6	2.75e6
hbt + CG43779	1	7.70e5	6.70e5	1.52e6	1.30e6
CG10211 (GeneID 35106)	1	1.38e5	1.08e5	1.21e6	1.44e6
CG10211 (GeneID 35106)	2	4.24e5	2.92e5	2.00e6	1.56e6
CG14715 (GeneID 41403)	1	41581	50658	6.61e5	6.50e5
mars (GeneID 36498)	1	1.65e5	4.04e5	1.76e6	2.00e6
CG2162 (GeneID 38360)	1	7.03e5	9.12e5	1.23e6	9.81e5
CG2162 (GeneID 38360)	2	7.64e5	7.55e5	8.90e5	8.86e5
CG4313 (GeneID 31169)	1	75103	67702	5.12e5	4.71e5
CG4313 (GeneID 31169)	2	5.61e5	8.44e5	1.00e6	1.06e6
CG5098 (GeneID 37063)	1	6.92e5	6.77e5	1.56e6	1.67e6
CG5098 (GeneID 37063)	2	6.82e5	9.37e5	7.47e5	8.82e5
homer (GeneID 33944)	1	1.05e6	1.26e6	2.06e6	1.97e6
homer (GeneID 33944)	2	1.08e6	8.27e5	1.23e6	1.42e6
Mdr65 (GeneID 38726)	1	5.97e5	5.20e5	3.87e6	3.80e6
CG17786 (GeneID 42879)	1	2.20e5	1.67e5	2.16e6	1.78e6
CG17786 (GeneID 42879)	2	7.70e5	5.52e5	8.18e5	7.96e5
Tre1 (GeneID 140439)	1	2.20e5	2.78e5	1.82e6	1.82e6
Tre1 (GeneID 140439)	2	3.18e5	7.57e5	1.06e6	1.58e6
Eig71Ec (GeneID 39703)	1	2.90e5	3.04e5	3.00e6	2.60e6
whip (GeneID 5740782)	1	7.74e5	7.85e5	2.15e6	2.12e6
ytr (GeneID 47457)	1	9.05e5	6.74e5	1.51e6	1.23e6
ytr (GeneID 47457)	2	8.56e5	8.95e5	1.18e6	9.84e5
ytr (GeneID 47457)	3	3.24e5	3.21e5	9.94e5	8.02e5
CG15717 (GeneID 32262)	1	4.78e5	5.98e5	3.50e6	4.15e6
CG43980 (GeneID 2768995)	1	2.13e5	1.57e5	5.70e5	6.49e5
CG43980 (GeneID 2768995)	2	2.80e5	2.32e5	2.67e6	1.82e6
CG43980 (GeneID 2768995)	3	2.53e5	8.79e5	8.14e5	1.35e6
CG43980 (GeneID 2768995)	4	96097	1.13e5	1.41e5	81503
CG43980 (GeneID 2768995)	5	5.74e5	5.02e5	1.43e6	1.57e6
CG11893 (GeneID 43056)	1	1.94e5	2.07e5	2.37e6	2.27e6
CG11893 (GeneID 43056)	2	4.26e5	3.70e5	9.06e5	1.23e6
CIA30 (GeneID 43503)	1	1.08e5	1.48e5	1.03e6	7.25e5
CG31086 + CG31323	1	1.78e5	1.82e5	1.91e6	2.19e6
CG31086 + CG31323	2	5.80e5	5.91e5	8.30e5	7.97e5
CG12477 (GeneID 40040)	1	1.99e5	2.21e5	2.00e6	2.59e6
CG12477 (GeneID 40040)	2	1.05e6	1.01e6	9.65e5	1.29e6
Sox14 (GeneID 37822)	1	2.91e5	2.85e5	2.21e6	1.87e6
Sox14 (GeneID 37822)	2	3.40e5	2.49e5	5.17e5	4.48e5
Zmynd8 (GeneID 43730)	1	1.22e5	88907	6.74e5	4.97e5
Zmynd8 (GeneID 43730)	2	3.49e5	2.80e5	5.81e5	5.81e5
Edem2 (GeneID 34714)	1	2.94e5	3.10e5	2.40e6	2.11e6
Edem2 (GeneID 34714)	2	4.29e5	2.78e5	5.77e5	3.51e5
lush (GeneID 40136)	1	3.26e5	2.22e5	2.99e6	2.07e6
CG32219 (GeneID 317922)	1	2.77e5	2.87e5	7.66e5	7.72e5
CG18278 + CG30059	1	1.73e5	2.20e5	3.78e5	4.54e5
CG14294 (GeneID 42262)	1	3.57e5	2.38e5	4.90e6	3.13e6
Fatp (retired record) (GeneID 44227)	1	1.10e6	1.64e6	1.34e6	2.54e6
CG15404 (GeneID 33537)	1	1.51e5	1.39e5	1.18e6	8.95e5
Snx6 (GeneID 34126)	1	1.10e6	1.44e6	2.23e6	2.65e6
Snx6 (GeneID 34126)	2	4.49e5	3.75e5	1.49e6	1.54e6
